Among all 52,000 sequences or so, about 210 (0.4%) were called active.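 How the source made its calls: active means gene whose silencing raises cell survival under the drug, median off-target-corrected z-score across its silencing RNAs 2 or more; inactive means the rest.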 This is one part of the list.
experiment: Resistance to Poly (ADP-Ribose) Polymerase inhibitor: Gene Identification via Genome-wide siRNA Screen; details: mouse BRCA2 R2336H ES cells, olaparib, CellTiter-Glo viability; active compounds read high
In short: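 Genome-wide siRNA screen (3 siRNAs/gene, 20 nM) in mouse ES cells carrying hypomorphic BRCA2 R2336H; olaparib 500 nM added 48 h post-transfection, CellTiter-Glo viability 72 h later. Normalized to plate-median negative control; MAD z-scores, gene median, seed-adjusted.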

Sequence	z-score
CCACACUGAGGACUAUAUUTT against Cstf1	inactive: 0.623
GGAACAAAGAGGUUCUAGGTT against Olfr202	inactive: 0.188
CCAGGUGUAUAAUAAGAUGTT against Atp8b3	inactive: 0.949
GGAGCCUCACUUCUAUCUUTT against Foxk1	inactive: -0.584
CCUGCUCAGGACGACUUUUTT against 2010016F14Rik	inactive: -0.453
GCGGUAUCCUAGCUGUGAATT against Gm1100	inactive: -0.265
GGAUUCAAAGAAAAUCCUGTT against B3galt2	inactive: 0.0642
GCUCUCAGGUCCUAAGAGATT against AU044919	inactive: 0.494
GGUAGAACCCAUGACAGCUTT against Ube1l	inactive: 1.94
GGAUGCCUUCUAUACACUATT against Hras1	inactive: 0.202
GCACUGAGUACUGCCUCAUTT against Otop3	inactive: -0.322
GGUUAUUUUGGGAAUAUUCTT against Ndufab1	inactive: 1.07
GGGUACAGGACUCAAGAGUTT against 9130230L23Rik	inactive: -0.628
GGUUAAAGGUGCAUUUAAATT against Olfr1448	inactive: -0.453
GGGAUUGAUUUGACUCACATT against Kars	inactive: -2.09
GGCCUUCCUUUGUUUUUUUTT against Jup	inactive: 0.565
GGUGUUUUCUGUGCUGUGATT against Klhdc3	inactive: -1.14
GGCUCAGUGAAGGCAAGUUTT against Hspb2	inactive: -0.481
GGGCUGUAUUUCUUUACCCTT against Mrgprb2	inactive: 0.494
GGGAUCUUGGAGAACCAAATT against Slc39a5	inactive: -1.75
GGAUUGUGCUGUGAAACAUTT against Pilrb	inactive: -1.98
CCAAACACUAUGGCCUGAUTT against Nsddr	inactive: -2.82

Sequence	z-score
GCUUCUAGAGACAAAAAAUTT against Mapk8ip3	inactive: 1.07
GCACCAUAUCCUCUGCAUUTT against Slc5a6	inactive: -0.89
GCAUACUUAGGAUACACGCTT against A830005F24Rik	inactive: -0.766
GGCGUGUCUGUAAAAUCUUTT against 3110037I16Rik	inactive: -0.611
GGUGAUUUGUGAAAGGGUGTT against Rnf38	inactive: -0.548
GCAAUGUCGCCAAACGUAATT against Zfpn1a1	inactive: -0.213
GGGAACUCAGCUUCACCAATT against Trim47	inactive: -1.84
GGGACCAUACACUCCAUAUTT against Olfr1507	inactive: 0.0912
CGGUCAUUAAAACUUACAGTT against Hells	inactive: 0.472
GGUUGCUAGUUUCUGAAAATT against C130074G19Rik	inactive: 0.177
GGACAACUCUCAUGUAAUATT against A630047E20Rik	inactive: -1.48
GAUUGUGGACUUAAGGAUUTT against V1rg6	inactive: -0.36
GCUUUAUUGAUUCCACUAGTT against C630007C17Rik	inactive: 0.359
GGCCAAUGUCUUCUUCAAGTT against Arpc3	inactive: -1.12
GGAGCUACCAAGUUACUUCTT against Emr4	inactive: 0.742
GGAGGGUGAUCUCAUUGAATT against Prkcm	inactive: -2.15
CCGGGACAUAGAGGAAAUUTT against Cabp1	inactive: -2.2
GGCAACUAAGGCUAAGAAGTT against Hist1h1e	inactive: 0.15
GGCUAUACCUUGGUAGAUATT against Parvg	inactive: -0.205
CCUGGACCAAAAUUUUGUGTT against Cyp2j5	inactive: 1.43
GGUAUUGGUGCAAUUGUCCTT against Olfr891	inactive: 0.712
GGUAAUUGCUGGCUUUAAUTT against Pfdn2	inactive: -1.75

Pulled one by one from the list above, 2 records:
Sequence	z-score
GCACUGAGUACUGCCUCAUTT against Otop3	inactive: -0.322
GGUAUUGGUGCAAUUGUCCTT against Olfr891	inactive: 0.712

More results

Sequence	z-score
GGCUGGAAGCGUAAUUCACTT against Trim36	inactive: 0.48
GGACAUUAUCACUUUGGAATT against Casp2	inactive: 0.491
GGAGAACCCAUUCAAGUCCTT against Suhw2	inactive: 1.19
GGACUUGAAUGAUAAGUUCTT against Cyp1a1	inactive: 0.408
GGAUGAAGUGGAAGAUUACTT against Birc1b	inactive: 0.299
GGAGCUGGUGGAUCUGAAGTT against D7Wsu128e	inactive: -0.44
GUGCAUGCAGUGUUGUUUUTT against Magea5	inactive: 0.299
GGUUACGGAUAUGGAUCUGTT against Krtap8-2	inactive: -0.67
GGGCACAGGCACUAAAAUGTT against Sbk	inactive: -0.689
GCCUAGCAGUGCCAGGAAATT against Epn2	inactive: -0.533
GCCACUCAAAGUUCGAAGGTT against BC003277	inactive: -0.0471
GGUCCAGAUUCGAACACCATT against 5430437P03Rik	inactive: 2.95
CCAGGAAGUGUUGAUGUGCTT against Gal	inactive: -0.782
GCUCUAUGGAGACCUAAAGTT against Sdha	inactive: -1.88
GGUAAUAAAGCUCUUACAGTT against 1600031M04Rik	inactive: 0.289
GCAAACCAUGCCUAAUGGATT against 4632415K11Rik	inactive: -0.567
CGACAACACAGUUAUUAUUTT against Pld1	inactive: 0.299
GGAAUAUCACCAAACCAAATT against 2310057J18Rik	inactive: -0.058
GGAAGAGGUGCUACCUCUATT against Crlz1	inactive: 0.248
CCAAGUACAAAUGGUGUGATT against Vdac2	inactive: 0.262
GUUCUUAUAUAGGAUUGUGTT against Gm1620	inactive: 0.479
GGAUCAAUGGUGUCUUUGUTT against Pdzk1	inactive: -1.84

Reformatted comma-delimited: part of the list above.
Sequence,z-score
GGCUGGAAGCGUAAUUCACTT against Trim36,inactive: 0.48
GGACAUUAUCACUUUGGAATT against Casp2,inactive: 0.491
GGAGAACCCAUUCAAGUCCTT against Suhw2,inactive: 1.19

— PubChem BioAssay AID1347423 (Functional Genomics Laboratory (NCATS/FGL), 2020)
